This is an account of results in the supplement of paper PMC8866396.

± gives the standard deviation of the averaged measurements. The list shows a part of the results. This data set is noisy: repeats of one test often differ as much as different tests do.

The assay has as its system IL-6-GFP PC-9GR. The assay can be described thus: IL-6-GFP fluorescence relative to DMSO control (fraction of control); higher = more IL-6-GFP expression. Conditions: compound concentration: 10 uM; treatment time: 48 h. Here is the method: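 IL-6-GFP-overexpressing PC-9 and PC-9GR EGFR-mutant lung cancer cells (3000 cells/well, 96-well) were treated for 48 h with each compound of the Selleck L2000 library at 10 uM. IL-6-GFP fluorescence was read on a high-content screening system, and viability by CCK-8 absorbance on a parallel plate set. Each value was normalised as compound well / DMSO control well; two independent replicates.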
Turning to `Cl.O=C(OCC(O)CO)c1ccccc1Nc1ccnc2cc(Cl)ccc12` (stereo not given) [Glafenine HCl], the IL-6-GFP fluorescence came out at 1.15 ± 0.64. The value for `O.O.O=C([O-])CCNC(=O)c1ccc(N=Nc2ccc(O)c(C(=O)[O-])c2)cc1.[Na+].[Na+]` [Balsalazide disodium] was 0.554 ± 0.18; that for `CN(C)c1cc(CNCC(C)(C)C)c(O)c2c1CC1CC3C(N(C)C)C(O)=C(C(N)=O)C(=O)C3(O)C(O)=C1C2=O.Cc1ccc(S(=O)(=O)O)cc1` (stereo not given) [Omadacycline tosylate] was 0.774 ± 0.1; that for `CC(C)(O)CNc1nc(Nc2ccnc(C(F)(F)F)c2)nc(-c2cccc(C(F)(F)F)n2)n1` [Enasidenib (AG-221)] was 0.978 ± 0.16. The value for `O=C1CCCC2C3CCC[N+]4([O-])CCCC(CN12)C34` (stereo not given) [Oxymatrine] was 0.78 ± 0.33; that for `COc1cc(C(=O)NS(=O)(=O)c2ccccc2C)ccc1Cc1cn(C)c2ccc(NC(=O)OC3CCCC3)cc12` [Zafirlukast] was 0.709 ± 0.16. The molecule `CCOc1ccc(Cc2cc(C34OCC(CO)(O3)C(O)C(O)C4O)ccc2Cl)cc1` (stereo not given) [Ertugliflozin] showed an IL-6-GFP fluorescence of 0.928 ± 0.15. With `CC1(C)SC2C(NC(=O)C(c3ccccc3)S(=O)(=O)[O-])C(=O)N2C1C(=O)[O-].[Na+].[Na+]` (stereo not given) [Sulbenicillin Sodium] the figure was 0.897 ± 0.19; with `Cc1oncc1C(=O)Nc1ccc(C(F)(F)F)cc1` [Leflunomide], 0.937 ± 0.048. The value for `CC1CC2C3CCC4=CC(=O)C=CC4(C)C3(Cl)C(O)CC2(C)C1(OC(=O)c1ccco1)C(=O)CCl` (stereo not given) [Mometasone furoate] was 0.677 ± 0.26.

`CC(C)Cc1ccc(C(C)C(=O)O)cc1` (stereo not given) [Ibuprofen] had an IL-6-GFP fluorescence of 0.633 ± 0.21. The value for `CC1(C)C2CCC1(C)C(O)C2` (stereo not given) [Borneol] was 1.01 ± 0.12. For the molecule `CC[N+](CC)(CC)CCOc1cccc(OCC[N+](CC)(CC)CC)c1OCC[N+](CC)(CC)CC.[I-].[I-].[I-]` [Gallamine Triethiodide], the IL-6-GFP fluorescence was 1.07 ± 0.023.

`COc1cc(CNC(=O)CCCC/C=C\C(C)C)ccc1O` [Zucapsaicin] came in with an IL-6-GFP fluorescence of 0.844 ± 0.066. With `O=C([O-])CC(O)(CC(=O)[O-])C(=O)[O-].O=C([O-])CC(O)(CC(=O)[O-])C(=O)[O-].[BiH6+3].[K+].[K+].[K+]` [Gastrodenol] the figure was 0.949 ± 0.24; with `CC(C)(C)c1nc(-c2cccc(NS(=O)(=O)c3c(F)cccc3F)c2F)c(-c2ccnc(N)n2)s1.CS(=O)(=O)O` [Dabrafenib Mesylate], 1.1 ± 0.24. The value for `CC(C)OC(=O)CCC/C=C\CC1C(O)CC(O)C1CCC(O)CCc1ccccc1` (stereo not given) [Latanoprost] was 0.432 ± 0.46; that for `CC1CC2C3CCC4=CC(=O)C=CC4(C)C3(F)C(O)CC2(C)C1(O)C(=O)CO` (stereo not given) [Dexamethasone (DHAP)] was 1.08 ± 0.12. `CC1CCN(C(=O)CC#N)CC1N(C)c1ncnc2[nH]ccc12.O=C(O)CC(O)(CC(=O)O)C(=O)O` (stereo not given): the IL-6-GFP fluorescence came out at 0.7931 ± 0.0058.

The molecule `C=CC(=O)Nc1cccc(Oc2nc(Nc3ccc(N4CCN(C)CC4)cc3)nc3ccsc23)c1` showed an IL-6-GFP fluorescence of 1.04 ± 0.038. The value for `C[S+](C)CCC(N)C(=O)O.[Cl-]` (stereo not given) was 0.707 ± 0.043; that for `COc1ccc2c(c1)nc(S(=O)Cc1ncc(C)c(OC)c1C)[n]2[Na]` (stereo not given) [Omeprazole Sodium] was 0.989 ± 0.2; that for `COc1ccc(C2OCC3C(c4cc(OC)c(OC)c(OC)c4)OCC23)cc1OC` (stereo not given) [Magnolin] was 0.8644 ± 0.0067. The value for `O=C(Oc1ccccc1C(=O)O)c1ccccc1O` [Sasapyrine] was 0.697 ± 0.28.

Consider `COc1cc2c3cc1Oc1c(OC)c(OC)cc4c1C(Cc1ccc(O)c(c1)Oc1ccc(cc1)CC3N(C)CC2)N(C)CC4` (stereo not given) [Berbamine], for which the IL-6-GFP fluorescence was 0.969 ± 0.28. The value for `CC(NCc1ccc(OCc2cccc(F)c2)cc1)C(N)=O.CS(=O)(=O)O` (stereo not given) [Safinamide Mesylate] was 0.9 ± 0.069. The value for `C/C=C1/C2C=C(C)CC1(N)c1ccc(=O)[nH]c1C2` (single isomer, unassigned; (-)) [(-)-Huperzine A (HupA)] was 0.672 ± 0.11. In turn, `CCCS(=O)(=O)Nc1ccc(F)c(C(=O)c2c[nH]c3ncc(-c4ccc(Cl)cc4)cc23)c1F` [Vemurafenib (PLX4032, RG7204)] registered an IL-6-GFP fluorescence of 0.931 ± 0.06. The value for `C=CC(=O)Nc1cc(Nc2nccc(-c3cn(C)c4ccccc34)n2)c(OC)cc1N(C)CCN(C)C.CS(=O)(=O)O` [Osimertinib mesylate] was 1.39 ± 0.23; that for `Cc1nc(Nc2ncc(C(=O)Nc3c(C)cccc3Cl)s2)cc(N2CCN(CCO)CC2)n1` [Dasatinib] was 1.2 ± 0.14.

As to `Cn1cc(C2=C(c3cccc(N)c3)C(=O)NC2=O)c2ccccc21`, the IL-6-GFP fluorescence was determined as 0.972 ± 0.33.

Regarding `NC(CCC(=O)NC(CS)C(=O)NCC(=O)O)C(=O)O` (stereo not given) [Glutathione], the IL-6-GFP fluorescence stood at 0.829 ± 0.14. With `Cl.Cl.O=C(O)COCCN1CCN(C(c2ccccc2)c2ccc(Cl)cc2)CC1` (stereo not given) [Cetirizine DiHCl] the figure was 1.02 ± 0.023. The value for `CC(=O)Nc1ccc(OC(=O)c2ccccc2OC(C)=O)cc1` [Benorylate] was 0.78 ± 0.021; that for `CC(C(=O)O)c1ccc(-c2ccccc2)c(F)c1` (stereo not given) [Flurbiprofen] was 0.799 ± 0.36. With `Nc1ccn(C2OC(CO)C(O)C2O)c(=O)n1` (stereo not given) [Cytarabine] the figure was 0.893 ± 0.063; with `Cl.O=C1NCC2(CCN(CCc3ccccc3)CC2)O1` [Fenspiride HCl], 0.699 ± 0.13. Molecule `O=C([O-])Cc1ccccc1Nc1c(Cl)cccc1Cl.[Na+]` [Diclofenac Sodium] yielded an IL-6-GFP fluorescence of 0.735 ± 0.018. The value for `CC1(C(=O)O)CCC2(C)CCC3(C)C(=CC(=O)C4C5(C)CCC(OC6OC(C(=O)O)C(O)C(O)C6OC6OC(C(=O)O)C(O)C(O)C6O)C(C)(C)C5CCC43C)C2C1.N` (stereo not given) [Ammonium Glycyrrhizinate] was 0.876 ± 0.07. `O=C(O)CCCCC1CCSS1` (stereo not drawn) [(+)-α-Lipoic acid] returned an IL-6-GFP fluorescence of 0.531 ± 0.22.
